1 molecule from article PMC8556396, “Statin-mediated disruption of Rho GTPase prenylation and activity inhibits respiratory syncytial virus infection” (Communications Biology, 2021) can be followed below.

The test system of the experiment is RSV-GFP. The experiment can be described thus: microbe, parasite or virus in culture. Particulars: human respiratory syncytial virus, HEp-2, read-out: RSV-GFP inhibition (%). It is filed as cell-based. The procedure: The following morning, cells were washed twice with serum-free EMEM and treated with RSV-GFP (MOI 0.5) in a minimal volume of serum-free media for 90 min under frequent agitation. Unbound virus was then removed and replaced with fresh serum-containing EMEM. All drug additions were performed 2 h post-viral exposure, unless otherwise stated.
Automated quantification of infection rates from fluorescent images were performed in CellProfiler (v2.2.0)[86]. Major steps in the image analysis pipeline included: (1) background subtraction and smoothing, (2) segmentation of nuclei, (3) segmentation of GFP-fluorescent area, (4) object masking, and (5) measurement of nuclear number, size, and intensity. Infection rate was quantified from the ratio of nuclei within GFP-fluorescent area to the total number of nuclei (Fig. 1b). This method of analysis accounts for in vitro syncytium formation induced by RSV, whereby a single infected cell may arise from the fusion of multiple cells. Mean nuclear fluorescent intensity and size was quantified as a measure of cell viability.
The MicroSource […] Collection (Discovery Systems Inc.) consisting of 2400 compounds was screened using the previously outlined RSV-GFP infection assay protocol. […] Z-factors were calculated on a per-plate basis to monitor assay quality.

In the case of `CCCCCCCCCCCCCCCC[n+]1ccccc1` [Cetylpyridinium chloride], the inhibition at 10 µM was 55.8%.

One may read the inhibition as the drop in the measured response relative to a control, in per cent.
